# From the supplement of paper PMC8728848
# Some of the results follow.
# Legend:
# Experiment in all cases: glycan array binding signal (z-score within array); higher = stronger binding
# Conditions in all cases: glycan notation: IUPAC condensed, linker removed
# Glc(b1-4)Glc = biological target: Glc(b1-4)Glc
# Outline: (§1)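 The Consortium for Functional Glycomics database supplied 3228 glycan arrays, of which those lacking an available protein sequence were dropped. The binding signal, a within-array Z-score, was averaged across arrays of the same protein sequence and across linkers. Negative scores can be read as non-binding.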
# Glc(b1-6)Glc = biological target: Glc(b1-6)Glc
# Outline: as §1
# GlcA(b1-3)Gal = biological target: GlcA(b1-3)Gal
# Outline: as §1
# GlcA(b1-3)GlcNAc = biological target: GlcA(b1-3)GlcNAc
# Outline: as §1
# GlcA(b1-6)Gal = biological target: GlcA(b1-6)Gal
# Outline: as §1
# [1] = biological target: GlcA3S(b1-3)Gal(b1-4)GlcNAc(b1-2)Man
# Outline: as §1
# [2] = biological target: GlcA3S(b1-3)Gal(b1-4)GlcNAc(b1-3)Gal(b1-4)Glc
# Outline: as §1
# [3] = biological target: GlcNAc(a1-3)Gal(b1-4)GlcNAc
# Outline: as §1
# [4] = biological target: GlcNAc(a1-4)Gal(b1-3)GlcNAc
# Outline: as §1
# [5] = biological target: GlcNAc(a1-4)Gal(b1-4)GalNAc
# Outline: as §1
# [6] = biological target: GlcNAc(a1-4)Gal(b1-4)GlcNAc
# Outline: as §1
# [7] = biological target: GlcNAc(a1-4)Gal(b1-4)GlcNAc(b1-3)Gal(b1-4)Glc
# Outline: as §1
# [8] = biological target: GlcNAc(a1-4)Gal(b1-4)GlcNAc(b1-3)Gal(b1-4)GlcNAc
# Outline: as §1
# [9] = biological target: GlcNAc(a1-4)Gal(b1-4)GlcNAc(b1-3)Gal(b1-4)GlcNAc(b1-3)Gal(b1-4)GlcNAc
# Outline: as §1
# [10] = biological target: GlcNAc(a1-4)Gal(b1-4)GlcNAc(b1-3)Gal(b1-4)[Fuc(a1-3)]GlcNAc(b1-3)Gal(b1-4)[Fuc(a1-3)]GlcNAc
# Outline: as §1
# [11] = biological target: GlcNAc(a1-6)Gal(b1-4)GlcNAc
# Outline: as §1
# [12] = biological target: GlcNAc(b1-2)Gal(b1-3)GalNAc
# Outline: as §1
# [13] = biological target: GlcNAc(b1-2)Man(a1-3)[GlcNAc(b1-2)Man(a1-6)]Man(b1-4)GlcNAc(b1-4)GlcNAc
# Outline: as §1
# [14] = biological target: GlcNAc(b1-2)Man(a1-3)[GlcNAc(b1-2)Man(a1-6)]Man(b1-4)GlcNAc(b1-4)[Fuc(a1-6)]GlcNAc
# Outline: as §1
# [15] = biological target: GlcNAc(b1-2)Man(a1-3)[GlcNAc(b1-4)][GlcNAc(b1-2)Man(a1-6)]Man(b1-4)GlcNAc(b1-4)GlcNAc
# Outline: as §1
# [16] = biological target: GlcNAc(b1-2)Man(a1-3)[GlcNAc(b1-4)][GlcNAc(b1-2)Man(a1-6)]Man(b1-4)GlcNAc(b1-4)[Fuc(a1-6)]GlcNAc
# Outline: as §1
# [17] = biological target: GlcNAc(b1-2)[GlcNAc(b1-4)]Man(a1-3)[GlcNAc(b1-2)Man(a1-6)]Man(b1-4)GlcNAc(b1-4)GlcNAc
# Outline: as §1
# [18] = biological target: GlcNAc(b1-2)[GlcNAc(b1-4)]Man(a1-3)[GlcNAc(b1-4)][GlcNAc(b1-2)Man(a1-6)]Man(b1-4)GlcNAc(b1-4)GlcNAc
# Outline: as §1
# [19] = biological target: GlcNAc(b1-2)[GlcNAc(b1-4)]Man(a1-3)[GlcNAc(b1-4)][GlcNAc(b1-2)[GlcNAc(b1-6)]Man(a1-6)]Man(b1-4)GlcNAc(b1-4)GlcNAc
# Outline: as §1
# [20] = biological target: GlcNAc(b1-2)[GlcNAc(b1-4)]Man(a1-3)[GlcNAc(b1-4)][GlcNAc(b1-2)[GlcNAc(b1-6)]Man(a1-6)]Man(b1-4)GlcNAc(b1-4)[Fuc(a1-6)]GlcNAc
# Outline: as §1
# [21] = biological target: GlcNAc(b1-2)[GlcNAc(b1-6)]Man(a1-6)[GlcNAc(b1-2)Man(a1-3)]Man(b1-4)GlcNAc(b1-4)GlcNAc
# Outline: as §1
# [22] = biological target: GlcNAc(b1-2)[GlcNAc(b1-6)]Man(a1-6)[GlcNAc(b1-2)Man(a1-3)]Man(b1-4)GlcNAc(b1-4)[Fuc(a1-6)]GlcNAc
# Outline: as §1
# [23] = biological target: GlcNAc(b1-2)[GlcNAc(b1-6)]Man(a1-6)[GlcNAc(b1-4)][GlcNAc(b1-2)Man(a1-3)]Man(b1-4)GlcNAc(b1-4)GlcNAc
# Outline: as §1
# GlcNAc(b1-3)Fuc = biological target: GlcNAc(b1-3)Fuc
# Outline: as §1
# GlcNAc(b1-3)Gal = biological target: GlcNAc(b1-3)Gal
# Outline: as §1
# [24] = biological target: GlcNAc(b1-3)Gal(b1-3)GalNAc
# Outline: as §1
# GlcNAc(b1-3)Gal(b1-4)Glc = biological target: GlcNAc(b1-3)Gal(b1-4)Glc
# Outline: as §1
# [25] = biological target: GlcNAc(b1-3)Gal(b1-4)GlcNAc
# Outline: as §1
# [26] = biological target: GlcNAc(b1-3)Gal(b1-4)GlcNAc(b1-2)Man(a1-3)[GlcNAc(b1-3)Gal(b1-4)GlcNAc(b1-2)Man(a1-6)]Man(b1-4)GlcNAc(b1-4)GlcNAc
# Outline: as §1
# [27] = biological target: GlcNAc(b1-3)Gal(b1-4)GlcNAc(b1-2)Man(a1-3)[GlcNAc(b1-3)Gal(b1-4)GlcNAc(b1-2)Man(a1-6)]Man(b1-4)GlcNAc(b1-4)[Fuc(a1-6)]GlcNAc
# Outline: as §1
# [28] = biological target: GlcNAc(b1-3)Gal(b1-4)GlcNAc(b1-2)[GlcNAc(b1-3)Gal(b1-4)GlcNAc(b1-6)]Man(a1-6)[GlcNAc(b1-3)Gal(b1-4)GlcNAc(b1-2)Man(a1-3)]Man(b1-4)GlcNAc(b1-4)GlcNAc
# Outline: as §1
# [29] = biological target: GlcNAc(b1-3)Gal(b1-4)GlcNAc(b1-3)Gal(b1-4)GlcNAc
# Outline: as §1
binder,measurement,setting,value
"AT1G80310(18) (Arabidopsis thaliana), Q0WP36 (protein) METTTTPLLPGDRSRCGWLRRRLRLKNPLSSELSGAVGDLGTFIPIVLTLTLVSNLDLSTTLIFTGFYNIATGLLFDIPMPVQPMKSIAAVAVSESPHLTPSQIAAAGASTAATLLLLGATGAMSFLYNIIPLPVVRGVQLSQGLQFAFTAIKYVRFNYDTATLKPSSSPRIWLGLDGLILALAALLFIILSTGSGNDREAEDGDLAETSSNESQSRRRRLRLLSSIPSALIVFALGLVLCFIRDPSIFKDLKFGPSKFHILRISWDDWKIGFLRAAIPQIPLSVLNSVIAVCKLSNDLFDKELSATTVSISVGVMNLIGCWFGAMPVCHGAGGLAGQYRFGARSGLSVIFLGIGKLIVGLVFGNSFVRILSQFPIGILGVLLLFAGIELAMASKDMNSKEDSFIMLVCAAVSMTGSSAALGFGCGVVLYLLLKLRTLDCSSVTLFSRSSDESQVDSEAAPRDV",glycan array binding signal (z-score),Glc(b1-4)Glc,1.3
same,glycan array binding signal (z-score),Glc(b1-6)Glc,0.34
same,glycan array binding signal (z-score),GlcA(b1-3)Gal,0.291
same,glycan array binding signal (z-score),GlcA(b1-3)GlcNAc,-0.665
same,glycan array binding signal (z-score),GlcA(b1-6)Gal,-0.36
same,glycan array binding signal (z-score),[1],-0.96
same,glycan array binding signal (z-score),[2],-0.808
same,glycan array binding signal (z-score),[3],-0.113
same,glycan array binding signal (z-score),[4],2.29
same,glycan array binding signal (z-score),[5],-0.769
same,glycan array binding signal (z-score),[6],-0.622
same,glycan array binding signal (z-score),[7],-0.701
same,glycan array binding signal (z-score),[8],-0.72
same,glycan array binding signal (z-score),[9],0.229
same,glycan array binding signal (z-score),[10],0.68
same,glycan array binding signal (z-score),[11],-0.864
same,glycan array binding signal (z-score),[12],0.232
same,glycan array binding signal (z-score),[13],-0.094
same,glycan array binding signal (z-score),[14],1.56
same,glycan array binding signal (z-score),[15],-0.484
same,glycan array binding signal (z-score),[16],0.221
same,glycan array binding signal (z-score),[17],0.74
same,glycan array binding signal (z-score),[18],-0.861
same,glycan array binding signal (z-score),[19],0.419
same,glycan array binding signal (z-score),[20],-0.097
same,glycan array binding signal (z-score),[21],-0.524
same,glycan array binding signal (z-score),[22],-0.496
same,glycan array binding signal (z-score),[23],0.144
same,glycan array binding signal (z-score),GlcNAc(b1-3)Fuc,-0.731
same,glycan array binding signal (z-score),GlcNAc(b1-3)Gal,-0.25
same,glycan array binding signal (z-score),[24],0.308
same,glycan array binding signal (z-score),GlcNAc(b1-3)Gal(b1-4)Glc,2.64
same,glycan array binding signal (z-score),[25],1.55
same,glycan array binding signal (z-score),[26],0.32
same,glycan array binding signal (z-score),[27],0.074
same,glycan array binding signal (z-score),[28],0.877
same,glycan array binding signal (z-score),[29],-0.512

# Some of the entries so far, bar-delimited.
binder | measurement | setting | value
AT1G80310(18) (Arabidopsis thaliana), Q0WP36 (protein) METTTTPLLPGDRSRCGWLRRRLRLKNPLSSELSGAVGDLGTFIPIVLTLTLVSNLDLSTTLIFTGFYNIATGLLFDIPMPVQPMKSIAAVAVSESPHLTPSQIAAAGASTAATLLLLGATGAMSFLYNIIPLPVVRGVQLSQGLQFAFTAIKYVRFNYDTATLKPSSSPRIWLGLDGLILALAALLFIILSTGSGNDREAEDGDLAETSSNESQSRRRRLRLLSSIPSALIVFALGLVLCFIRDPSIFKDLKFGPSKFHILRISWDDWKIGFLRAAIPQIPLSVLNSVIAVCKLSNDLFDKELSATTVSISVGVMNLIGCWFGAMPVCHGAGGLAGQYRFGARSGLSVIFLGIGKLIVGLVFGNSFVRILSQFPIGILGVLLLFAGIELAMASKDMNSKEDSFIMLVCAAVSMTGSSAALGFGCGVVLYLLLKLRTLDCSSVTLFSRSSDESQVDSEAAPRDV | glycan array binding signal (z-score) | [5] | -0.769
same | glycan array binding signal (z-score) | [6] | -0.622
same | glycan array binding signal (z-score) | [7] | -0.701
same | glycan array binding signal (z-score) | [8] | -0.72
same | glycan array binding signal (z-score) | [9] | 0.229
same | glycan array binding signal (z-score) | [10] | 0.68
